# In all, about 410,000 compounds went through this assay and about 18,000 (4.4%) were called active. Inconclusive means that the source gave no clear call. Such entries were picked first, then a sample of the others. No stated cut-off is given here; in the data, active means activity change below about -60%; inconclusive means no clear call, values can overlap the other calls; inactive means above about -39%.
# Experiment: qHTS Assay for inhibitors of the human cytomegalovirus (HCMV)
# Conditions: HFF cells, HCMV-luciferase reporter, 72 h; at 57.5 µM; stronger effect = lower value
# In short: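 HFF cells seeded 16 h at 37C, treated with compounds, infected with luciferase-reporter HCMV at MOI 1 PFU/cell; luciferase read at 72 h post infection, normalized to buffer-only and Salinomycin controls.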
# On the % scale 0 is the no-effect control and ±100 the full control effect.
row,Structure (SMILES),"activity change, negative = inhibition"
1,COc1cc(/C=N/NC(=S)NC2CC3CC2C2C=CCC32)ccc1O (stereo unspecified),inconclusive: -50.7%
2,COc1ccc(OC)c(S(=O)(=O)N2CCC(C(=O)N3CCN(c4ccc(F)cc4)CC3)CC2)c1,active: -62.2%
3,O=c1[nH]c(=O)n(Cc2ccccc2)c2nc(-c3ccc(Oc4ccc(F)cc4)c([N+](=O)[O-])c3)n(CCO)c12,active: -63.6%
4,Cc1ccc(OCCSc2nc3ccc(NC(=O)c4ccc5c(c4)OCO5)cc3s2)cc1,inactive: -5.83%
5,O=C(C[C@@H]1C/C=C\CCC(=O)OC[C@H](Cc2ccccc2)NC1=O)N[C@@H](CO)Cc1ccccc1,inconclusive: -47.1%
6,O=C(COc1ccccc1)NCC(c1cccs1)S(=O)(=O)c1ccc(Cl)cc1 (stereo unspecified),inactive: -8.44%
7,O=[N+]([O-])c1cccc2c(N3CCOCC3)ccnc12,inconclusive: -53.3%
8,CN1CCc2cc3c(c4c2C1Cc1ccccc1-4)OCO3 (stereo unspecified),inconclusive: -43%
9,Cc1ccc(S(=O)(=O)N2[C@@H](c3cccc4ccccc34)C(C(=O)O)=C[C@H]2C(C)(C)C)cc1,inactive: -14.1%
10,COc1cccc(C(=O)Nc2ccc(-n3nncc3-c3ccc(Br)cc3)cc2)c1OC,inactive: 18.5%
11,CCOC(=O)c1c(NC(=O)CN2CCN(S(=O)(=O)c3cc(Cl)ccc3Cl)CC2)sc(C(=O)N(C)C)c1C,active: -90%
12,CCCCn1c(Cc2ccccc2)n[nH]c1=S,inconclusive: -40.9%
13,CCOC(=O)C1=C(C)N=C2SCCC(=O)N2C1c1cccs1 (stereo unspecified),inconclusive: -47.8%
14,Cc1ccc(NC(=O)C2c3ccccc3Oc3ccccc32)nc1,inconclusive: -44.9%
15,Cc1cc(C)cc(NS(=O)(=O)c2ccc(-c3cnc(C4CC4)o3)cc2)c1,inconclusive: -55.7%
16,O=C(CSc1nc(=O)n2ccccc2n1)N1CCCc2ccccc21,inactive: 8.73%
17,CCn1c(=O)c2c(nc3n2CCN3c2ccccc2)n(C)c1=O,active: -74.9%
18,Nn1c(Cc2ccccc2F)nnc1SCCOc1ccc(Cl)cc1,inconclusive: -43.8%
19,CCCn1c(=N)c(C(=O)NCc2cccnc2)cc2c(=O)n3cccc(C)c3nc21,inconclusive: -52%

row,Structure (SMILES),"activity change, negative = inhibition"
1,Cc1oc2ncnc(N3CCOCC3)c2c1C(=O)N1CCN(c2cccc(C(F)(F)F)c2)CC1,inactive: 9.38%
2,O=C(COc1ccccc1)NNC(=O)c1ccc(Cl)cc1,inconclusive: 0%
3,COC1=CC(=O)OC(c2ccc(OC)cc2)C1 (stereo unspecified),inconclusive: -51.7%
4,COc1ccc(C(=O)NCC(c2ccc3c(c2)OCO3)N2CCOCC2)cc1 (stereo unspecified),inconclusive: 0%
5,O=C1CC(c2cccc(Cl)c2)CC(O)=C1C=Nc1ccccc1 (stereo unspecified),inconclusive: -52.4%
6,CCN(CC)S(=O)(=O)c1cccc(C(=O)/C=C2/N(C)c3ccccc3C2(C)C)c1,inconclusive: -57.4%
7,COc1ccc(N=NC2C(=O)N(c3ccccc3)N=C2C)cc1 (stereo unspecified),inactive: 5.9%
8,CCCCn1c(SCC(=O)c2ccccc2)nc2ccsc2c1=O,inconclusive: -47.6%
9,Cc1ccc(-n2c(C)cc(/C=N\NC(=O)CC(=O)NC(C)C)c2C)cc1,inconclusive: -41.5%
10,O=C(Nc1nnc(CSCc2ccc(Cl)cc2)s1)c1cccc([N+](=O)[O-])c1,inactive: -34.3%
11,CC(C)Oc1ccc(CN=C(N)N=C(N)N)cc1Cl,active: -74.6%
12,Cc1cccc(NC(=S)N(CCCN2CCOCC2)Cc2cn(C)c3ccccc23)c1,active: -89%
13,C=C(C)Cn1c(-c2cccs2)n[nH]c1=S,inconclusive: -42.4%
14,Cc1ccc(S(=O)(=O)Nc2cccc(S(=O)(=O)Nc3ccccc3C(=O)O)c2)c(C)c1,inactive: -14.7%
15,O=C(NCc1cccs1)c1ccc2c(c1)ncn2C1CCCC1,inconclusive: -58.7%
16,CC(NC(=O)c1cccs1)C1CCCO1 (stereo unspecified),inactive: 73.9%
17,COC(=O)Nc1nc(-c2ccccc2)c(C(=O)c2ccc(Cl)cc2)s1,inconclusive: -57.1%
18,Cc1ccc(S(=O)(=O)N2CCOCC2)cc1C(=O)OCC(=O)NCCc1ccc(F)cc1,inactive: 2.25%
19,O=C(N[C@H](CO)Cc1ccccc1)c1ccco1,inactive: -24.2%

row,Structure (SMILES),"activity change, negative = inhibition"
1,CCOC(=O)CC1=CC(C)(CC(=O)OCC)C(C#N)(C#N)C(N)=C1C#N (stereo unspecified),inconclusive: -50.1%
2,CCCN1C(=O)c2ccc(C(=O)Nc3nccs3)cc2C1=O,inactive: 3.01%
3,CC(=O)OCc1c(-c2ccccc2)c2cc([N+](=O)[O-])ccc2n1C,active: -77.2%
4,Cc1cccc(NC(=S)Nc2ccc(Br)cc2)c1,inconclusive: -50.4%
5,CC1CCCCN1C(=O)Cn1c(=O)oc2cc(S(=O)(=O)N3CCCC3)ccc21 (stereo unspecified),inconclusive: -40%
6,NC(=O)c1cc(S(=O)(=O)NCCCc2ccccc2)cs1,inconclusive: -41.9%
7,O=c1c2cc([N+](=O)[O-])ccc2nc2n1CCCC2,active: -64.5%
8,CC(C)(C)C1CCC(=NNC(=O)C(=O)NC2CCCCC2)CC1 (stereo unspecified),inconclusive: -42.5%
9,O=C(c1ccc2c(c1)OCCO2)N1CCN(Cc2ccccc2)CC1,inactive: 62.7%
10,COC(=O)c1cc(OC)c(OC)cc1NC(=O)c1cccc(OC)c1OC,inconclusive: -52%
11,CCCN(C(=O)COC(=O)CCOc1ccc(C)cc1)c1c(N)n(Cc2ccccc2)c(=O)[nH]c1=O,inconclusive: -47.8%
12,CSCCNCc1cn(-c2ccc(F)cc2F)nc1-c1ccccc1C,inconclusive: -41.8%
13,O=C(CCCCCn1c(=S)[nH]c2cc3c(cc2c1=O)OCO3)N1CCN(c2ccc(F)cc2)CC1,inconclusive: -56.5%
14,CCCSc1nc2c(c(=O)n(C)c(=O)n2C)n1C,inconclusive: -40.3%
15,C/C(=N\NC(=O)c1cc(-c2ccc(C)s2)[nH]n1)c1ccco1,inactive: -24%
16,O=c1c(Br)c(Br)cnn1-c1ccccc1,active: -97.2%
17,COc1cccc(NC(=O)CN2C(=O)COc3ccc(Cl)cc32)c1,inconclusive: -44.9%
18,CCN(CC)C(=O)Cn1cc(S(=O)(=O)CC(=O)NCCc2ccc(OC)c(OC)c2)c2ccccc21,inconclusive: -48.4%

# Quoted from the listing (2 entries):
row,Structure (SMILES),"activity change, negative = inhibition"
12,CSCCNCc1cn(-c2ccc(F)cc2F)nc1-c1ccccc1C,inconclusive: -41.8%
13,O=C(CCCCCn1c(=S)[nH]c2cc3c(cc2c1=O)OCO3)N1CCN(c2ccc(F)cc2)CC1,inconclusive: -56.5%
